From PubChem BioAssay AID1671190 (National Center for Advancing Translational Sciences (NCATS), 2021)
The campaign covered roughly 580,000 compounds. About 6,100 (1.1%) were called active. Inconclusive results, whose numbers are uncertain, are shown with a selection of clear calls. Calls come from the whole dose curve; as a rule, active = well fitted inhibition curve with a large enough effect; inconclusive = small, poorly fitted or top-dose-only effect, or another doubt; inactive = no such curve, though single readings can be large or run the other way. A potency beside an inconclusive call is a rough fit, not a confirmed value.

Sequences of proteins named here, by UniProt entry; tags and fusion partners are left off. A change or cut given only in a name is not applied to a line headed by its entry.
UniProt P18054: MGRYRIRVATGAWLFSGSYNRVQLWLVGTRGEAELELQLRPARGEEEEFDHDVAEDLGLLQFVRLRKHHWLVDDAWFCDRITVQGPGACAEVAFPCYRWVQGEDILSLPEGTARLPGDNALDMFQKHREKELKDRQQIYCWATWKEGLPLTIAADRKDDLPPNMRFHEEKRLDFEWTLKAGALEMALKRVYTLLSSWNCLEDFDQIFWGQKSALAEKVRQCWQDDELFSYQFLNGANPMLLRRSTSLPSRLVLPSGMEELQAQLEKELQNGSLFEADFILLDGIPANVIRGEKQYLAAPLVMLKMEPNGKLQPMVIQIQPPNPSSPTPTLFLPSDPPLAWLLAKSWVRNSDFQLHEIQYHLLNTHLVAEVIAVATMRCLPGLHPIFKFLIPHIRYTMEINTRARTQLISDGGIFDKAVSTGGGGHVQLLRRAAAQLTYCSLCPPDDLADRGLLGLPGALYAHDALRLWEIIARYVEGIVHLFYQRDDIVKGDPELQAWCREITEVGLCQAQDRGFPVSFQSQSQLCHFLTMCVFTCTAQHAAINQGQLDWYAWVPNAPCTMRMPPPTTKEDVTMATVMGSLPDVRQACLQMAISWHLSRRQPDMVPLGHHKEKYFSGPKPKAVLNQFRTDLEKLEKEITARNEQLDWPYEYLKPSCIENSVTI

Target: Polyunsaturated fatty acid lipoxygenase ALOX12 (Homo sapiens) (UniProt P18054)
Assay: Primary qHTS assay for inhibitors of human arachidonate 12S-lipoxygenase (ALOX12): Round 2
Conditions: purified 12hLO, xylenol orange hydroperoxide absorbance; activity change, negative = inhibition: at 108 µM (top of the series) unless noted
In short: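 Purified human 12hLO (150 nM final) in 25 mM Hepes, 0.01% Triton X-100, pH 7.0 was preincubated 15 min at room temperature with compound. Then 40 uM arachidonic acid was added, 30 min. Hydroperoxide was read by Fe-XO absorbance ratio 573/405 nm.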
% is set by controls: 0 for no effect and ±100 for the full control effect; potency is the fitted concentration of half-maximal effect.

Row | Structure (SMILES) | activity change, negative = inhibition | Potency
1 | Cn1c(=O)c2c(nc(Br)n2Cc2cccc(Cl)c2)n(C)c1=O | inactive: 10.6% | –
2 | CN(Cc1ccccc1)S(=O)(=O)c1cc2c(cc1Cl)Oc1ccccc1NC2=O | inactive: -15.9% | –
3 | CNc1c2cccc(C)c2nc2c(C(=O)NCCN(C)C)cccc12 | – | inconclusive: 56.2 µM [inhibitor, partial curve, poor fit]
4 | COc1ccc(OC)c(CN2CCC(C)CC2)c1 | – | inconclusive: 1.12 µM [inhibitor, full curve, poor fit]
5 | O=c1cc(N2CCOCC2)[nH]c(=O)n1-c1ccc(Br)cc1 | – | inconclusive: 2.82 µM [inhibitor, full curve, poor fit]
6 | COc1ccc(-c2noc(CSc3nnc(C)n3-c3ccc(OC)cc3)n2)cc1 | inactive: -24.3% | –
7 | COc1ccc(Oc2ccc3[nH]c4c(c3c2)CCC/C4=N/O)cc1 | – | inconclusive: 126 µM [inhibitor, single point]
8 | COC(=O)c1ccc(/C=C/C(=O)c2cccc(N3CCOCC3)c2)cc1 | – | inconclusive: 28.2 µM [inhibitor, partial curve, poor fit]
9 | Cc1ccc2nc(-c3ccc(F)cc3)c(CN3CCCC(C(N)=O)C3)cc2c1 (configuration not stated) | – | inconclusive: 35.5 µM [inhibitor, partial curve]
10 | Cc1ccc2c(CN3CCc4ccccc43)cc(=O)oc2c1C | – | inconclusive: 89.1 µM [inhibitor, partial curve, poor fit]
11 | O=C(NCc1c(O)ccc2ccccc12)c1ccccc1 | – | inconclusive: 89.1 µM [inhibitor, single point]
12 | Cc1nc2scc(CC(=O)NCc3ccco3)n2c(=O)c1-c1cc(C)n(-c2cc(F)ccc2F)n1 | – | inconclusive: 12.6 µM [inhibitor, full curve]
13 | COc1ccc(-c2ccc3[nH]c4c(c3c2)CCN2C[C@@H]([C@H](C)OC(=O)Nc3cc(Cl)cc(Cl)c3)[C@@H](N(C)C(=O)Nc3cc(Cl)cc(Cl)c3)C[C@@H]42)cc1 | – | inconclusive: 31.6 µM [inhibitor, partial curve, poor fit]
14 | CC(C)NC(=O)N1CC2ON=C(C(=O)N3CCN(c4ncccn4)CC3)C2C1 (configuration not stated) | inactive: -0.213% [at 6.33 µM] | –
15 | CC1(C)N([O-])C2=C(c3ccccc3C2=O)[N+](=O)C1(C)C | – | inconclusive: 44.7 µM [inhibitor, single point]
16 | O=C(Nc1cccc2ccccc12)c1ccccc1NS(=O)(=O)c1cccc2cccnc12 | inactive: 7.57% | –
17 | Cn1c(COc2ccc3ccccc3c2)nnc1SCC(=O)O | – | inconclusive: 50.1 µM [inhibitor, partial curve, poor fit]

2 successive compounds already listed, quoted:
Row | Structure (SMILES) | activity change, negative = inhibition | Potency
2 | CN(Cc1ccccc1)S(=O)(=O)c1cc2c(cc1Cl)Oc1ccccc1NC2=O | inactive: -15.9% | –
3 | CNc1c2cccc(C)c2nc2c(C(=O)NCCN(C)C)cccc12 | – | inconclusive: 56.2 µM [inhibitor, partial curve, poor fit]
